These results are taken from patent publication US20230235078A1 (University of Texas, published 2023).

No constants are given. Whether binding was seen depends on the method and setting. For some of these results: Binding can be weak; no strength is given.

The target in assay [1] is DDR1 ECD fragment with deletion of DS domain (Homo sapiens (Human)). Description: ELISA, domain deletion protein coated at 2 µg/ml.
The target is the same in assay [2]. Description: ELISA, domain deletion protein coated at 2 ug/ml. (In an ELISA, binding on a coated surface is turned into a signal by an enzyme label.)
A further assay addresses EJXM-His. Description: ELISA, EJXM-His coated, huDDR1-9 titrated.
Assay [3] addresses DDR1 ECD fragment with deletion of DS domain (Homo sapiens (Human)). Nature of the assay: ELISA, ECDΔDS-His coated at 2 µg/ml, antibody titrated.

B1: DDR1-9Hu-Ab1 (antibody, V domains shown)
VH: QVQLVESGGRVVQPGRSLRLSCTASGFSLNRYYMLWVRQAPGKGLEWIGTISYGDTTYYASWAKGRFTISRDNSKNTLYLQMNSLRAEDTAVYYCARADTGDNGYLGLQLWGQGTLVTVSS
VL: DIQMTQSPSSVSASVGDRVTITCQASQSIGSVLAWYQQKPGKAPKLLISGVFDLASGVPSRFSGSGSGTDFTLTISSLQPEDFATYYCQYIPYGSSPFGGGTKVEIK
notes: Humanized form of DDR1-9; also called DDR1-9hu-Abl; humanized DDR1-9hu antibody
B1: the binding entry in assay [1] is “binds”; in assay [2] it was “binds”; with EJXM-His it was “no binding (tested: 10000 ng/mL (4 on the log10 axis))”.

B2: DDR1-9 (antibody, V domains shown)
VH: QSLEESGGRLVTPGTPLTLTCTASGFSLNRYYMLWVRQAPGEGLEWIGTISYGDTTYYASWAKGRFTISKTSTTVDLKMTSPTTEDTATYFCARADTGDNGYLGLQLWGPGTLVTVSS
VL: ELVMTQTPASVEAAVGGTVTIKCQASQSIGSVLAWYQQKPGQRPKLLISGVFDLASGVPSRFKGSGSGTEFTLTISDLECADAATYYCQYIPYGSSPFGGGTEVVVK
notes: Rabbit variable domains; also called anti-huDDR1 antibody #9; DDR1-9K/DDR1-9H
In the case of B2, the binding entry in assay [2] and in assay [3] was “binds” each time.

B3: DDR1-14 (antibody, V domains shown)
VH: QSVKESGGRLVTPGTPLTLTCTVSGIDLSYYAMSWVRQAPGKGLEYIGIINGRGDTGYATWAKGRFTISKTSTTVDLRITSPTIEDTATYFCAREDSAIPFIVGNYYGMDLWGPGTLVTVSS
VL: ELDMTQTPASVSEPVGGTVTIKCQASQSISSYLAWYQQKPGQPPKRLIFEASTLASGVPSRFSGSGSGTDFTLTISDLECADAATYYCQNNNGFSGSNFNNFGGGTEVEIK
notes: Rabbit variable domains; also called anti-huDDR1 antibody #14; DDR1-14K/DDR1-14H
B3: the binding entry in assay [2] and in assay [3] was “binds” in each case.
